# Percent effect of library compounds

Sequences of proteins named here, by UniProt entry; tags and fusion partners are left off. Residues count along the entry.
UniProt Q4DA54, 1-478: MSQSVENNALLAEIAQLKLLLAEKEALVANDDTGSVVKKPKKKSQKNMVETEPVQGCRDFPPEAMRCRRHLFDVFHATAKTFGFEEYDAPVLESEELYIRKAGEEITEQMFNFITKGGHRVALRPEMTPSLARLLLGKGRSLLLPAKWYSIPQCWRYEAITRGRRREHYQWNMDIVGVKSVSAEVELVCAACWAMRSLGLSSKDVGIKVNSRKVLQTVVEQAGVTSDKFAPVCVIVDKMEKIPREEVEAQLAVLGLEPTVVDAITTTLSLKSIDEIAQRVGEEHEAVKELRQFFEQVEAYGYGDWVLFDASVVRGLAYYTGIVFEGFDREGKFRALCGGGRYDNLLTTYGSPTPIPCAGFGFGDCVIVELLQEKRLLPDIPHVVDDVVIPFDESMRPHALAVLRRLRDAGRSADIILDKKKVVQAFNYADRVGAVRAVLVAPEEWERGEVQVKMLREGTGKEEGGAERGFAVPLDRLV
UniProt P9WPC5, whole entry: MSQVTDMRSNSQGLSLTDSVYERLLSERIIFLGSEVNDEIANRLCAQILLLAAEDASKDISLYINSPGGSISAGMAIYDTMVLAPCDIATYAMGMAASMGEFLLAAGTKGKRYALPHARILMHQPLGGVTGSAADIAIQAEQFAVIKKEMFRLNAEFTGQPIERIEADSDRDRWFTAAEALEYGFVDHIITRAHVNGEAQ
UniProt P9WPC3, whole entry partner: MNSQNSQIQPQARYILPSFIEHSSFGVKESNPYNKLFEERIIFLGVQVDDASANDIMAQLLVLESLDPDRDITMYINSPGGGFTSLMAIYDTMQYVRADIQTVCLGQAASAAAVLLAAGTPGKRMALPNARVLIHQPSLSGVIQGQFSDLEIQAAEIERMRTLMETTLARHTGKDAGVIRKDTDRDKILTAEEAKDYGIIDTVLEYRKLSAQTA
UniProt Q8IDJ8, 1-583: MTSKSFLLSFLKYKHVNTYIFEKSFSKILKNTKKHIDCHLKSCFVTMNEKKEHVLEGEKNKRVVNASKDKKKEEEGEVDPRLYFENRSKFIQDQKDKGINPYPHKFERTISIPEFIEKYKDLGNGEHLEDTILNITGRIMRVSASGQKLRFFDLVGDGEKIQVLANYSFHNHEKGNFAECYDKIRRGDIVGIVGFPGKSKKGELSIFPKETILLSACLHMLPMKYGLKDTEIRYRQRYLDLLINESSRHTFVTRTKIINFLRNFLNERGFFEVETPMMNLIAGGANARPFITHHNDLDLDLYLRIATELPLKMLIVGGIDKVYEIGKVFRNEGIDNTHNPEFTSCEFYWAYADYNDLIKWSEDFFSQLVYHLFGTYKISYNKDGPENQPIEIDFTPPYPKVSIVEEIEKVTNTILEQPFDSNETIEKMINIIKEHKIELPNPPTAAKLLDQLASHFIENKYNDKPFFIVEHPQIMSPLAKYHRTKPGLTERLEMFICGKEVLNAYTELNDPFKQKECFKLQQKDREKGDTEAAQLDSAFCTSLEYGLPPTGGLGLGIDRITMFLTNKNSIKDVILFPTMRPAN

Leishmania in macrophages: 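Cell assay of Leishmania donovani living inside macrophages; the read-out is not stated. Compounds at 30 µM. The record gives no direction; compounds that gave an IC50 in retests scored well above the rest, so higher reads as stronger inhibition. About 69,000 compounds were tested under these conditions; 1.5% (about 1,000) showed 50% or more at least once.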
TcHisRS: 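Enzyme assay of histidyl-tRNA synthetase; the read-out is not stated. Target: Histidine-tRNA ligase, Trypanosoma cruzi CL Brener (UniProt Q4DA54). Concentration: 30 µM. The record gives no direction; compounds that gave an IC50 in retests scored well above the rest, so higher reads as stronger inhibition. Size under these conditions: about 69,000 compounds, about 31 of them at 50% or above in at least one test.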
ClpP1P2: 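Protease assay of ClpP1P2, read by the AMC dye that it sets free. Target: ClpP1P2, Mycobacterium tuberculosis (UniProt P9WPC5 and UniProt P9WPC3). Compounds at 50 µM. Higher reads as stronger inhibition, judged from the few compounds that gave an IC50. Most other retested compounds had strongly negative values. About 69,000 compounds were tested under these conditions; 0.015% (about 10) showed 50% or more at least once.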
Toxoplasma: 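Assay of Toxoplasma gondii numbers, read through their beta-galactosidase reporter with a colour substrate. Tested at 10 µM. Higher reads as fewer parasites (inferred from which compounds were picked for retests). About 67,000 compounds were tested under these conditions; 0.38% (about 260) showed 50% or more at least once.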
PfKRS1: 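Lysine-tRNA ligase, Plasmodium falciparum 3D7 (UniProt Q8IDJ8). Enzyme assay of the cytosolic lysyl-tRNA synthetase in 384-well plates, read by luminescence. Compounds at 30 µM. Higher reads as stronger inhibition, judged from the few compounds that gave an IC50. Size under these conditions: about 69,000 compounds, about 49 of them at 50% or above in at least one test.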

The filed quantity is “Percent Effect” (%).
The record does not define 0% and 100%; most values in the screen are far below 50% and negative numbers occur (in some assays of this library far below -100).
Compounds were drawn at random from those tested, without regard to their results.

For Cc1cc(C)c(CNC(=O)N2CCN(c3cnccn3)CC2)c(=O)[nH]1 the result was Leishmania in macrophages: -7.682%; TcHisRS: -1.141%; ClpP1P2: 7.345%; Toxoplasma: -2.258%; PfKRS1: 6.148%. For O=S(=O)(C1CC1)N1CC[C@]2(C[C@@H](OCC3CCOCC3)CO2)C1 the result was Leishmania in macrophages: 21.64%; TcHisRS: 0%; ClpP1P2: -0.05575%; Toxoplasma: 16.04%; PfKRS1: -0.5019%. O=C(O)C(F)(F)F.O=C(O)C(F)(F)F.[H][C@@]12C[C@@H](Oc3cncnc3)CN1CCN(Cc1nccn1C)C2 read Leishmania in macrophages: -2.94%; Toxoplasma: 4.732%. For CCn1cc(NC(=O)NCCN2CCCc3ccccc32)cn1 the result was Leishmania in macrophages: 18.49%; TcHisRS: 3.571%; ClpP1P2: -11.46%; Toxoplasma: -10.93%; PfKRS1: 9.098%. With O=C(NCC1CCCN1CCc1ccccc1)NCC1(O)CCC1 (centres undefined) the screen gave Leishmania in macrophages: 8.755%; TcHisRS: 7.595%; ClpP1P2: -8.62%; Toxoplasma: 1.488%; PfKRS1: -2.946%.

With O=C(Cn1cccc2cc(-c3ccc(F)cc3)nc1-2)N1CCC(O)CC1 the screen gave Leishmania in macrophages: 2.575%; TcHisRS: 4.135%; ClpP1P2: -519.6%; Toxoplasma: -6.848%; PfKRS1: -0.7628%. c1ccc(-c2cnc(CNC3CCc4ncnn4C3)o2)cc1 (centres undefined) gave Leishmania in macrophages: -7.576%; TcHisRS: 4.762%; ClpP1P2: 6.344%; Toxoplasma: -19.68%; PfKRS1: -0.8243%. Cc1ccc(N2CCCc3sc(C(=O)NCc4ccc(C)o4)nc32)nn1 read Leishmania in macrophages: 18.34%; TcHisRS: -0.4975%; ClpP1P2: -9.709%; Toxoplasma: -5.231%; PfKRS1: 6.043%. Result for c1cn(-c2nccnc2C2CCCN(C3CCOCC3)C2)cn1 (centres undefined) was Leishmania in macrophages: -34.62%; TcHisRS: 2.825%; ClpP1P2: -14.45%; Toxoplasma: 16.4%; PfKRS1: -0.2584%. For O=C1OCCN1Cc1nc(C2(c3ccc(F)cc3)CCOC2)no1 (centres undefined) the result was Leishmania in macrophages: -3.389%; TcHisRS: 0.8929%; ClpP1P2: -21.99%; Toxoplasma: -34.52%; PfKRS1: 6.304%.

With Cc1cc(CNC(=O)CN2CCN(C(=O)OC(C)(C)C)CC2)ccc1F the screen gave Leishmania in macrophages: -17.64%; TcHisRS: -1.961%; ClpP1P2: -1.376%; Toxoplasma: 4%; PfKRS1: -3.433%. CN(C(=O)Cc1ccccc1Cl)C1CCN(c2ccccn2)CC1 read Leishmania in macrophages: 26.91%; TcHisRS: 6.78%; ClpP1P2: -18.65%; Toxoplasma: 7.584%; PfKRS1: 0.9188%. Result for CCOC(=O)c1ccc(Nc2ccc(OC)c(N3CCCC3=O)c2)nc1 was Leishmania in macrophages: 8.991%; TcHisRS: -1.01%; ClpP1P2: 3.104%; Toxoplasma: -2.537%; PfKRS1: 1.917%. For Cc1cc(Cl)cc(C)c1CNC1CCN(CC(=O)N(C)C)CC1 the result was Leishmania in macrophages: 66.45%; TcHisRS: 6.494%; ClpP1P2: 3.335%; Toxoplasma: 0.5965%; PfKRS1: 2.543%. With O=C(NC1CCNC1)C1(N2CCCCC2)Cc2ccccc2C1 (centres undefined) the screen gave Leishmania in macrophages: 37.04%; TcHisRS: 15.15%; ClpP1P2: 21.42%; Toxoplasma: -3.993%; PfKRS1: 6.265%.

Cc1nn(CN(CC2CCOC2)C2CC2)c(=O)c2ccccc12 (centres undefined) read Leishmania in macrophages: 22%; TcHisRS: 3.415%; ClpP1P2: -13.78%; Toxoplasma: -18.9%; PfKRS1: 1.027%. With COCCNC(=O)CN1CCN(c2nc(C)cs2)CC1 the screen gave Leishmania in macrophages: 0.8878%; TcHisRS: 8.455%; ClpP1P2: -16.54%; Toxoplasma: 5.855%; PfKRS1: -0.752%.

For reference, 2 entries once more:

{"smiles": "CCn1cc(NC(=O)NCCN2CCCc3ccccc32)cn1", "Leishmania in macrophages": 18.49, "TcHisRS": 3.571, "ClpP1P2": -11.46, "Toxoplasma": -10.93, "PfKRS1": 9.098}
{"smiles": "O=S(=O)(C1CC1)N1CC[C@]2(C[C@@H](OCC3CCOCC3)CO2)C1", "Leishmania in macrophages": 21.64, "TcHisRS": 0, "ClpP1P2": -0.05575, "Toxoplasma": 16.04, "PfKRS1": -0.5019}

Measurements from “University of Dundee, Small-Polar-MMV Screening Library” (2021), ChEMBL document CHEMBL3988442.